In patent publication US20120101015A1, “ANTI-WEAR AGENTS WITH A REDUCED NEUROTOXICITY” (priority 2009, published 2012):
Some results were stated once for a whole list of compounds, not compound by compound.

Protein sequences, listed by entry. Tags and fused reporters are not part of them. Residues count along the entry.
UniProt P06276, 29-602: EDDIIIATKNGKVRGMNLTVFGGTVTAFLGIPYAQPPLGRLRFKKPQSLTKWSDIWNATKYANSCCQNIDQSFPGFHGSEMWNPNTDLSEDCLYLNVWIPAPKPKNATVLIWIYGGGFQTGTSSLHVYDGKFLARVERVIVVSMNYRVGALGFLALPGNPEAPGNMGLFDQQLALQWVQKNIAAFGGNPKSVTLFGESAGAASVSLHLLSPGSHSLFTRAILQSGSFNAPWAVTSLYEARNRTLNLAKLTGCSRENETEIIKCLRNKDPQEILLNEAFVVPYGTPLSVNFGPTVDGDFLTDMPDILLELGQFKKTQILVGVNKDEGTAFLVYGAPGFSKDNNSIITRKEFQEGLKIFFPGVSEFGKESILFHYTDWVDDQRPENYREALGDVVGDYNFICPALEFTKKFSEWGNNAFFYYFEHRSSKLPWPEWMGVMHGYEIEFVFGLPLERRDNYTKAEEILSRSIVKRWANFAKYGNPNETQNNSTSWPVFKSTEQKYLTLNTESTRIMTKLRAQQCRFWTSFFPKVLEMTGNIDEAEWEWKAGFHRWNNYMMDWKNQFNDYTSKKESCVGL

Target: human butyrylcholinesterase (BChE) (Homo sapiens, UniProt P06276)
Assay: In vitro BChE activity assay after incubation with human liver microsomes and NADPH (Example 2, stock in phosphate buffer)
Type: biochemical
Settings: triaryl phosphate 25 μg/ml, BChE reference activity 3.76 nmol DTNB/min, listed as triphenyl phosphate

O=P(Oc1ccccc1)(Oc1ccccc1)Oc1ccccc1 [C7, tri-phenylphosphate]
BChE residual activity percentage: lower than 50%
